Values of other authors as cited in patent US20200306222A1, “Dosing Regimen of Siponimod” (NOVARTIS AG, priority 2017, published 2020).
Read-outs that look alike come from different tables or passages of the source. At least one structure is not confirmed: it was looked up by name or label, or the drawing left a doubt.

Conditions: cited from earlier work; for absolute PHE volume (aPHE) versus standard management: 0.5 mg orally once daily for 3 days

In the case of CCCCCCCCc1ccc(CCC(N)(CO)CO)cc1 [fingolimod], the “hematoma volume versus standard management” value (0.5 mg orally once daily for 3 consecutive days, ICH patients) is given as “no differences in hematoma volume”, the “absolute PHE volume (aPHE) versus standard management” value (Day 7) is given as “lower” and the “absolute PHE volume (aPHE) versus standard management” value (Day 14) is given as “not at Day 14”. For the same compound, the “relative PHE (rPHE; aPHE/hematoma volume) versus standard management” value (both Day 7 and Day 14 after ICH) was “significantly lower”.
